Measured values published in patent US8377422B2, “Carboxamide derivatives having cooling properties” (Givaudan S.A., priority 2007, dated 2013).

System: panelists
Experiment: Cooling intensity: panel tasting of aqueous solutions against menthol at 2 ppm
Type: in vivo, human
Conditions: odor of the aqueous solution at the listed concentration

| Structure (SMILES) | Odor |
| --- | --- |
| COCCNC(=O)[C@@H]1C[C@H](C)CC[C@H]1C(C)C [(1R,2S,5R)-2-isopropyl-N-(2-methoxyethyl)-5-methylcyclohexanecarboxamide] | None |
| CC(C)[C@@H]1CC[C@@H](C)C[C@H]1C(=O)NCCOc1ccccc1 [Ex. 2.7, (1R,2S,5R)-2-isopropyl-5-methyl-N-(2-phenoxyethyl)cyclohexanecarboxamide] | None |
| CC(C)[C@@H]1CC[C@@H](C)C[C@H]1C(=O)NCCCOc1ccccn1 [Ex. 2.5, (1R,2S,5R)-2-isopropyl-5-methyl-N-(3-(pyridin-2-yloxy)propyl)cyclohexane-carboxamide] | None |
| CC1CCC(C(C)C)C(O)C1 (stereo not drawn) [I-Menthol] | Minty |
| CC(C)OCCCNC(=O)[C@@H]1C[C@H](C)CC[C@H]1C(C)C [(1R,2S,5R)-N-(3-isopropoxypropyl)-2-isopropyl-5-methylcyclohexanecarboxamide] | None |
| CCNC(=O)C1CC(C)CCC1C(C)C (stereo not drawn) [WS-3, N-ethyl p-menthanecarboxamide] | None |
